# Test results: paper PMC7819943, “Rice protein-binding microarrays: a tool to detect cis-acting elements near promoter regions in rice”
# Sequences of proteins named here, by UniProt entry; tags and fusion partners are left off.
# UniProt Q0JBA9, entry or part of it: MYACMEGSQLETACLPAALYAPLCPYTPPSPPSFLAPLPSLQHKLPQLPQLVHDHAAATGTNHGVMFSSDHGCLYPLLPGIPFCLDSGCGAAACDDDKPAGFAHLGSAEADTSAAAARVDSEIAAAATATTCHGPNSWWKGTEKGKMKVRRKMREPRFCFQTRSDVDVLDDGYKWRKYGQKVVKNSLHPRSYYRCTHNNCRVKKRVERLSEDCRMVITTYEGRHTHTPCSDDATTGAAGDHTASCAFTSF
# The list shows a part of the results.
# Target: OsWRKY34 (Oryza sativa, UniProt Q0JBA9 1-250)
# Assay: protein-binding microarray (RPBM); PBS, 2% BSA, 51.3 ng/ul salmon testes DNA, 50 uM zinc acetate, 200 nM TF, 25 C, 1 h; high values mean tight binding
# Conditions: protein: recombinant; tags: N-terminal polyhistidine and DsRed monomer fusion (pET32a); label: CyDye5-dUTP incorporated in the synthesized complementary strand; 3' TTTTT single-stranded linker to array surface; dsDNA, one strand shown
# In short: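 Binding signal is reported as fluorescence intensity per feature (arbitrary units) from an Axon 4000B scanner. Incubation used 200 nM of each Ni–NTA-purified, N-terminally polyhistidine- and DsRed-fused transcription factor from E. coli BL21-CodonPlus on a double-stranded custom Agilent array for 1 h at 25 °C, with 50 µM zinc acetate in the buffer, followed by washing.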
row,Sequence,binding signal
1,TGTTTTGTTGTTGGCCATGGCCCATGCTCTGCACTGTGCACGGAGTCACCTAGTGCAG,9440 fluorescence intensity (a.u.)
2,TCTCTCTGTGTGTGTTTGTGTCATATATGAGTTTGTGGGTCGGAGTCACCTAGTGCAG,9570 fluorescence intensity (a.u.)
3,CTTCTCATTTTCTTTCTGGTGTCGTTTTTGTTTGACGATTCGGAGTCACCTAGTGCAG,10600 fluorescence intensity (a.u.)
4,CGTCCGATTCATATAATTAGTCCTCAGTCGTCCGCCTAGTCGGAGTCACCTAGTGCAG,10100 fluorescence intensity (a.u.)
5,TTATCCACCACCACCACCACCACGCCGCTCGCTGCCTTCGCGGAGTCACCTAGTGCAG,11000 fluorescence intensity (a.u.)
6,CACAGGTTGCAGCTGCCTATAAAATAGACAGACGGCAAGTCGGAGTCACCTAGTGCAG,10500 fluorescence intensity (a.u.)
7,TCAAACATATGAGAAAAAGTCAACGGCGTCATCTATTAAACGGAGTCACCTAGTGCAG,8940 fluorescence intensity (a.u.)
8,TATAATTCTCTCTGTATGTATGTGCACATTGACCATGTCGCGGAGTCACCTAGTGCAG,9580 fluorescence intensity (a.u.)
9,ATCATCAGCCACGCTTGCGGTCGCCACCATCTCGCCATCACGGAGTCACCTAGTGCAG,9150 fluorescence intensity (a.u.)
10,AACCGGCCCGGTTCGGTTCACAGCCACACGCCGCGGCCCGCGGAGTCACCTAGTGCAG,8020 fluorescence intensity (a.u.)
11,ACAATTTTAACGTTACACCGAAAACGGCCGCCCATATCACCGGAGTCACCTAGTGCAG,8840 fluorescence intensity (a.u.)
12,AGGGCACGGGGAGGGTTGAGCGTGTTGAGCAGCTAACCTTCGGAGTCACCTAGTGCAG,8140 fluorescence intensity (a.u.)
13,AAATCGAATTGGGTGGGCTTCGTCTCGGCCTGCAAAGGATCGGAGTCACCTAGTGCAG,8590 fluorescence intensity (a.u.)
14,TTAAACTTTTAGGTGGGCATTTGTATGTTGGTATAGTACCCGGAGTCACCTAGTGCAG,11000 fluorescence intensity (a.u.)
15,GTAGAGCAGAGTAGTCTCCGTTCCTGGCCGATCCACCATGCGGAGTCACCTAGTGCAG,8750 fluorescence intensity (a.u.)
16,GCCCAATGCACTAACATCACCTCTTTTTACTATCTTGAAACGGAGTCACCTAGTGCAG,8480 fluorescence intensity (a.u.)
17,AAATGTTTCAATCGTTTAAATCGGGCGTTGTTTGACCGAACGGAGTCACCTAGTGCAG,8230 fluorescence intensity (a.u.)
18,CCTGCACCAACTCCGTCCACCACACCGGCGGTGCTGCCGCCGGAGTCACCTAGTGCAG,8220 fluorescence intensity (a.u.)
19,GTTTTTTACTGTTCATCTCCAACGTTTGACTGTTCGTTTTCGGAGTCACCTAGTGCAG,9140 fluorescence intensity (a.u.)
20,CCCAAGTTCAGGTTGTGTCTGCCTGCCTGCCTGTGAATTTCGGAGTCACCTAGTGCAG,9530 fluorescence intensity (a.u.)
21,CACCGCCGCCGCCTCCTCCTCCTCCGCCTCTCTACGGCAGCGGAGTCACCTAGTGCAG,9980 fluorescence intensity (a.u.)

# Part of the list above, bar-delimited.
row | Sequence | binding signal
14 | TTAAACTTTTAGGTGGGCATTTGTATGTTGGTATAGTACCCGGAGTCACCTAGTGCAG | 11000 fluorescence intensity (a.u.)
15 | GTAGAGCAGAGTAGTCTCCGTTCCTGGCCGATCCACCATGCGGAGTCACCTAGTGCAG | 8750 fluorescence intensity (a.u.)

# The list goes on:

row,Sequence,binding signal
1,GGTGTGTTTATAATTAATATACAGATTGTGTCACATTGTTCGGAGTCACCTAGTGCAG,9000 fluorescence intensity (a.u.)
2,ACTTTATCTTTTCGACCAATCACAATCCTCCTTCAATTATCGGAGTCACCTAGTGCAG,8090 fluorescence intensity (a.u.)
3,CTTTCTTGATTCCTGGAGCTCGCATTTCTTCCTGTGTTAACGGAGTCACCTAGTGCAG,8370 fluorescence intensity (a.u.)
4,CACTTCCATCCTTTCTTGTACAGTTGTACTGTTGTTACCTCGGAGTCACCTAGTGCAG,8760 fluorescence intensity (a.u.)
5,AGGCCATATCGAAACTGCAGTATTTGCACCCTAGTCTCTACGGAGTCACCTAGTGCAG,9610 fluorescence intensity (a.u.)
6,TCCTTTCTTTTTATTTTTTTTTGTCCGGTAGAATGATAAACGGAGTCACCTAGTGCAG,8070 fluorescence intensity (a.u.)
7,AAATGACGGTTGACTTATTTCCTTTCTAGTTTGAGTAATTCGGAGTCACCTAGTGCAG,9320 fluorescence intensity (a.u.)
8,CTGTTGACTTTTTCTTATATGTTTGACCATTCGTCTTATTCGGAGTCACCTAGTGCAG,24600 fluorescence intensity (a.u.)
9,AATCTCCGGACTTTTGGTCTACTTCTGTGTTTTTCCTCTACGGAGTCACCTAGTGCAG,12000 fluorescence intensity (a.u.)
10,ATCCACCGTCGTGTCGCCCACTGTCCAACTGCCAGTCAGCCGGAGTCACCTAGTGCAG,8920 fluorescence intensity (a.u.)
11,TTGTGCGTGAGTATAGTACTATATATATGTTTTTTTCACACGGAGTCACCTAGTGCAG,8450 fluorescence intensity (a.u.)
12,CTGCAGCTCACACCCAAACGCCTCACGCCCCGCCGCCATGCGGAGTCACCTAGTGCAG,8280 fluorescence intensity (a.u.)
13,ACCACATTTATCTTGTTTCACCATATTTCCCAGCCACACCCGGAGTCACCTAGTGCAG,15400 fluorescence intensity (a.u.)
14,TCATCTTGGTCTAAAGTCTGGTTTAATCGTGGTCTTGTCTCGGAGTCACCTAGTGCAG,10100 fluorescence intensity (a.u.)
15,GTATCAGGTTTTTTTTTCCCATATTCCTCCCGCGAGCCTCCGGAGTCACCTAGTGCAG,8300 fluorescence intensity (a.u.)
16,CTCCTAGTCCATTCCTTAACGCGCTCAACATTTCTTCGCTCGGAGTCACCTAGTGCAG,8080 fluorescence intensity (a.u.)
17,TTCCCAAATTCTAGGGTTCGCCTCTTGCACCGCCACGCATCGGAGTCACCTAGTGCAG,8790 fluorescence intensity (a.u.)
18,TAGGACATGTGGGGTTATTGTTTTTTCTTTTCACTGACATCGGAGTCACCTAGTGCAG,8810 fluorescence intensity (a.u.)
19,AAACTCTAATCGTACCTGAAACTTTGTGTATTTTAGTCTTCGGAGTCACCTAGTGCAG,11600 fluorescence intensity (a.u.)
20,ATTTCTTCCTTATGCATATCTCGTAGTCGACTAGCATTTTCGGAGTCACCTAGTGCAG,8340 fluorescence intensity (a.u.)
21,TCAACACCCAGGGCGACGACTTCGACTACCCGGACTTCCCCGGAGTCACCTAGTGCAG,9570 fluorescence intensity (a.u.)
